Results deposited as PubChem BioAssay AID1259308 (NCATS, 2017).

Purpose: 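Genes whose loss raises luciferase production in HEK293 cells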 (primary screen)
System: human HEK293 embryonic kidney cells stably expressing firefly luciferase (HEK-CMV-Luc2-Hygro)
Reagent: single siRNA against human genes, 0.8 pmol siRNA per well
Duration: 72 h
Measurement: 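Luciferase light (ONE-Glo) measured on one replicate plate set and viability (CellTiter-Glo) on the other, scaled to a negative control siRNA, with robust z-scores and luciferase per cell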
Direction: total luciferase, z-score: higher = more reporter protein produced
Call rule: 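Active when the median/MAD z-score for overall luciferase is greater than 3; a gene was taken forward for validation with new siRNAs if at least two of its three siRNAs passed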
Meaning of the calls: active = raised luciferase; inactive = no rise
This is an unselected part of about 59,000 reagents tested. Over the whole deposit, about 1,510 (2.6%) are marked active. 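Calls use total luciferase alone and ignore viability, so some active siRNAs may act by altering cell number.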 Reagents against one gene are numbered here. Further read-outs or replicates are left out here.

total luciferase, z-score, by gene knocked down and reagent
ZC3H11A (zinc finger CCCH-type containing 11A): #1 -0.492 inactive; #2 0.176 inactive; #3 1.47 inactive
GOLGA6L9 (golgin A6 family like 9): #1 3.11 active; #2 -0.686 inactive; #3 1.72 inactive
WDFY4 (WDFY family member 4): #1 -0.529 inactive; #2 1.28 inactive; #3 -1.6 inactive
MLKL (mixed lineage kinase domain like pseudokinase): #1 -0.315 inactive; #2 0.499 inactive; #3 -0.322 inactive
RPL21P44 (ribosomal protein L21 pseudogene 44): #1 0.138 inactive; #2 0.737 inactive; #3 0.602 inactive
TARDBP (TAR DNA binding protein): #1 0.279 inactive; #2 -1.4 inactive; #3 1.01 inactive
CGGBP1 (CGG triplet repeat binding protein 1): #1 0.117 inactive; #2 -2.08 inactive; #3 -1.23 inactive
STAT2 (signal transducer and activator of transcription 2): #1 -0.444 inactive; #2 1.3 inactive; #3 0.0116 inactive

Entries above whose gene name begins with Z or z (3):
total luciferase, z-score, by gene knocked down and reagent
ZC3H11A (zinc finger CCCH-type containing 11A): #1 -0.492 inactive; #2 0.176 inactive; #3 1.47 inactive
